{
  "source": "paper PMC7819943",
  "about": "“Rice protein-binding microarrays: a tool to detect cis-acting elements near promoter regions in rice”",
  "note": "The other results are listed elsewhere or left out.",
  "data": [
    {"biological_target": "T1, OsSMF1 (Oryza sativa, UniProt Q6ZLB0 1-436)", "T1 sequence": "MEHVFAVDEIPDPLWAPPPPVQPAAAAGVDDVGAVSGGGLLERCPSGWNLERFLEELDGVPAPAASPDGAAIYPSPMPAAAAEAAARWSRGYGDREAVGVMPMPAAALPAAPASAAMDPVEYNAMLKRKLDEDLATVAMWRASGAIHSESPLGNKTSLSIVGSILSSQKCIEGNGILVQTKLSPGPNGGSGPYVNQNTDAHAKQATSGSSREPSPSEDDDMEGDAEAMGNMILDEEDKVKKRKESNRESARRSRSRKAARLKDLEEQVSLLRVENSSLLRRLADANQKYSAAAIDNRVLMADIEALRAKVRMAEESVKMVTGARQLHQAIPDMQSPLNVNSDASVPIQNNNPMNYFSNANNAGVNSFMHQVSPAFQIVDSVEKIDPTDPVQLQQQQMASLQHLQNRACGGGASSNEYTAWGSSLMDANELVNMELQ", "experiment": "protein-binding microarray (RPBM); PBS, 2% BSA, 51.3 ng/ul salmon testes DNA, 50 uM zinc acetate, 200 nM TF, 25 C, 1 h; high values mean tight binding", "details": "protein: recombinant; tags: N-terminal polyhistidine and DsRed monomer fusion (pET32a); chain copies: 2; label: CyDye5-dUTP incorporated in the synthesized complementary strand; 3' TTTTT single-stranded linker to array surface; dsDNA, one strand shown", "summary_of_the_method": "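Per-feature fluorescence intensity (arbitrary units), read on an Axon 4000B scanner, is the binding signal. Transcription factors carrying an N-terminal polyhistidine tag and DsRed fusion were expressed in E. coli BL21-CodonPlus and purified on Ni–NTA. A custom Agilent array, made double-stranded by primer extension with Cy5-dUTP and blocked with 2% BSA, was incubated with 200 nM protein in PBS, 2% BSA, salmon testes DNA and 50 µM zinc acetate at 25 °C for 1 h and then washed.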", "values": [
      {"sequence": "ATTCTCGATTTAACACTAATCATCATTATCCTAATAACCACGGAGTCACCTAGTGCAG", "binding signal": "3220 fluorescence intensity (a.u.)"},
      {"sequence": "TGTAAGCACCACGTTAATGCCACATCAGATAAAGACCAAGCGGAGTCACCTAGTGCAG", "binding signal": "10900 fluorescence intensity (a.u.)"},
      {"sequence": "GTATATGCGTCATGTGCGTCTTCCCTGTCACGAGTGCGTGCGGAGTCACCTAGTGCAG", "binding signal": "7200 fluorescence intensity (a.u.)"},
      {"sequence": "TAGAGAGTGGCATATAGGTTTACTTAAAAGCCATGGGATCCGGAGTCACCTAGTGCAG", "binding signal": "25500 fluorescence intensity (a.u.)"},
      {"sequence": "ATAACGGCCGCCACAACGACCCCGCGTCACCCTAGGGCATCGGAGTCACCTAGTGCAG", "binding signal": "6420 fluorescence intensity (a.u.)"},
      {"sequence": "CCTTAATCTCGTCATGGTGTCGATGTTTGCAACTATGTTCCGGAGTCACCTAGTGCAG", "binding signal": "3460 fluorescence intensity (a.u.)"},
      {"sequence": "TTCATGCTCATTCGCGTACCTATTGCCAACCGGACAATGTCGGAGTCACCTAGTGCAG", "binding signal": "3620 fluorescence intensity (a.u.)"},
      {"sequence": "AGGGTTCAACGAGTCACGCTCACGACAAACCTCTACTCTCCGGAGTCACCTAGTGCAG", "binding signal": "3400 fluorescence intensity (a.u.)"},
      {"sequence": "CCGCGCAGACTTTATACAGAGAGCCGTTGACACGGTGTCCCGGAGTCACCTAGTGCAG", "binding signal": "3660 fluorescence intensity (a.u.)"},
      {"sequence": "CCTGTCAATTCCAATTGCCAGCGCACGCTTTTCTTCTGGACGGAGTCACCTAGTGCAG", "binding signal": "4850 fluorescence intensity (a.u.)"},
      {"sequence": "GAGAGATGACGTTGAGTTGGAGTAAGCTGCCCTGGGGTCACGGAGTCACCTAGTGCAG", "binding signal": "3800 fluorescence intensity (a.u.)"},
      {"sequence": "ATGAATCCGATAAGCCCTATATGCTCTGAGAATGATCTACCGGAGTCACCTAGTGCAG", "binding signal": "3540 fluorescence intensity (a.u.)"},
      {"sequence": "ATGACGGCCTATGTATGCCTGAGTTTGGCTTGTTTGATAGCGGAGTCACCTAGTGCAG", "binding signal": "24700 fluorescence intensity (a.u.)"},
      {"sequence": "CTCTCATCGAAAAGTTTGGACCCAAGCTGCAAACGTGGCACGGAGTCACCTAGTGCAG", "binding signal": "8490 fluorescence intensity (a.u.)"},
      {"sequence": "AGAAGGTACGAAGTTCTATCTCTCTCTAGAATTCTATAGGCGGAGTCACCTAGTGCAG", "binding signal": "38100 fluorescence intensity (a.u.)"},
      {"sequence": "GCACAACATTAGAAATGCAAGTGGTCGACCCACGAACCCACGGAGTCACCTAGTGCAG", "binding signal": "3250 fluorescence intensity (a.u.)"},
      {"sequence": "AGGGCGAGGAGGCGCTTGAGGGCGTCGAGCTTGTCGGCATCGGAGTCACCTAGTGCAG", "binding signal": "28400 fluorescence intensity (a.u.)"},
      {"sequence": "GCACACGGCTCGCTCCCCGTTCCCCGTCACGCGGTCAACCCGGAGTCACCTAGTGCAG", "binding signal": "6150 fluorescence intensity (a.u.)"},
      {"sequence": "TGTTGAACCAATTAGTGCGTGTCACTATATCTAGAAGTTCCGGAGTCACCTAGTGCAG", "binding signal": "3930 fluorescence intensity (a.u.)"},
      {"sequence": "GCCATTATCACTGGCGGATTGGTGACGTGGGCCGTCAGTGCGGAGTCACCTAGTGCAG", "binding signal": "20800 fluorescence intensity (a.u.)"},
      {"sequence": "CTGAAGCTGCTTCCTGCCGTGCGTGTATAAGATGATCACCCGGAGTCACCTAGTGCAG", "binding signal": "3450 fluorescence intensity (a.u.)"},
      {"sequence": "GCTCTGGTACTAGCCGTACGATGACGCCCAATAATTCAACCGGAGTCACCTAGTGCAG", "binding signal": "3750 fluorescence intensity (a.u.)"},
      {"sequence": "CTTCTCTCGTCTCTTCTCTTGTCACAACACAATACTGCAGCGGAGTCACCTAGTGCAG", "binding signal": "3980 fluorescence intensity (a.u.)"},
      {"sequence": "GAAGGACCTAGAGTAAACGGTTTCTGATTTTGCTATATATCGGAGTCACCTAGTGCAG", "binding signal": "3400 fluorescence intensity (a.u.)"},
      {"sequence": "CTATAGGCTCTCTACAAGAGATCCATGTCAGCATATTTTCCGGAGTCACCTAGTGCAG", "binding signal": "8270 fluorescence intensity (a.u.)"},
      {"sequence": "GCTTTGGGATTATAAAGATGCACTATATAACTTGTGTCAGCGGAGTCACCTAGTGCAG", "binding signal": "3290 fluorescence intensity (a.u.)"},
      {"sequence": "AACACCTTGGAGTCGGGACAGACCTGACGCGGCCGCCGGGCGGAGTCACCTAGTGCAG", "binding signal": "4130 fluorescence intensity (a.u.)"},
      {"sequence": "GAACCGAAACCTGGGAGAGATCGAAACGAGGCTGCGTCATCGGAGTCACCTAGTGCAG", "binding signal": "5370 fluorescence intensity (a.u.)"},
      {"sequence": "GGGAAGAAAGAAGATGATGATGAGGCTGACACGTGGGCCCCGGAGTCACCTAGTGCAG", "binding signal": "14500 fluorescence intensity (a.u.)"},
      {"sequence": "AGCCGTCGCTTGCACGCGTCCACGTACTTTGTCAACAAATCGGAGTCACCTAGTGCAG", "binding signal": "3660 fluorescence intensity (a.u.)"},
      {"sequence": "GTAGCCTCCTTATGTGTCACTGACAGTGGGCCCCACAGGACGGAGTCACCTAGTGCAG", "binding signal": "4520 fluorescence intensity (a.u.)"},
      {"sequence": "GAACGATGACGGCGCGATGGCCGCCGCCGTGGCGCGGACGCGGAGTCACCTAGTGCAG", "binding signal": "3210 fluorescence intensity (a.u.)"},
      {"sequence": "GACCTAGTAGGGTGTCATTCTCACGACTTGGATGATGCTTCGGAGTCACCTAGTGCAG", "binding signal": "6070 fluorescence intensity (a.u.)"},
      {"sequence": "TTTGCCTCCTCATCTCCTTTACGTGGGCTTTTCTATCCCACGGAGTCACCTAGTGCAG", "binding signal": "5040 fluorescence intensity (a.u.)"},
      {"sequence": "TTCTGAGTGTATAATTAATGTTTATGTGGTCACGTACTTGCGGAGTCACCTAGTGCAG", "binding signal": "3620 fluorescence intensity (a.u.)"},
      {"sequence": "CCCTCCTCTTAACTCCGCATCATCGCATCCTCTCTCTCTCCGGAGTCACCTAGTGCAG", "binding signal": "3700 fluorescence intensity (a.u.)"},
      {"sequence": "TGAAGATGAAGATTTTGGTGACACGCATTTCAAACTGCTACGGAGTCACCTAGTGCAG", "binding signal": "4980 fluorescence intensity (a.u.)"},
      {"sequence": "TGCTCGTCCCAGTCTCTGCCACGTGGGCCCCACACGCACCCGGAGTCACCTAGTGCAG", "binding signal": "17700 fluorescence intensity (a.u.)"},
      {"sequence": "ACTCAACAGATTAACTTAAATATGAGCCTGTTGCTGACTGCGGAGTCACCTAGTGCAG", "binding signal": "3760 fluorescence intensity (a.u.)"},
      {"sequence": "CCTGACCCACATGTCATTGACTCATGTGGGTTCTAGATGTCGGAGTCACCTAGTGCAG", "binding signal": "6670 fluorescence intensity (a.u.)"},
      {"sequence": "TTGAAACTAACAGGGCCTTTACCGACAAGTCAGCCCACCCCGGAGTCACCTAGTGCAG", "binding signal": "3340 fluorescence intensity (a.u.)"},
      {"sequence": "CTCCAATACACAATGTGTATATGACAGGTAGACCCATGTGCGGAGTCACCTAGTGCAG", "binding signal": "3400 fluorescence intensity (a.u.)"}
    ]}
  ]
}
